# Data from PMC5796017, “Enantiomeric Effect of D-Amino Acid Substitution on the Mechanism of Action of α-Helical Membrane-Active Peptides” (International Journal of Molecular Sciences, 2017).
# Experiments:
# [1] = Tryptophan fluorescence with LUV model membrane; conditions: 16 μM peptide; for Tryptophan emission maximum wavelength, PC/SM/PE/PS/Chol: 0.1 mM LUVs mimicking cancer cell membranes, 25 °C, 10 min; for Blue Shift, PC/SM/PE/PS/Chol: versus HEPES buffer, 0.1 mM LUVs
# [2] = Tryptophan fluorescence with LUV model membrane; conditions: 16 μM peptide; for Tryptophan emission maximum wavelength, PC/Chol: 0.1 mM LUVs mimicking normal eukaryotic membranes, 10 min; for Tryptophan emission maximum wavelength, PC/Chol / Tryptophan fluorescence Intensity, PC/Chol: 25 °C; for Tryptophan fluorescence Intensity, PC/Chol / Blue Shift, PC/Chol: 0.1 mM LUVs; for Blue Shift, PC/Chol: versus HEPES buffer
# [3] = Tryptophan fluorescence with LUV model membrane; conditions: 16 μM peptide; for Tryptophan emission maximum wavelength, PC/PG: 0.1 mM LUVs mimicking prokaryotic membranes, 25 °C, 10 min; for Blue Shift, PC/PG: versus HEPES buffer, 0.1 mM LUVs
# [4] = Tryptophan fluorescence in HEPES buffer; conditions: HEPES buffer pH 7.4, 16 μM peptide, 25 °C, excitation 280 nm
SMILES,"Tryptophan emission maximum wavelength, PC/SM/PE/PS/Chol [1] [nm]","Blue Shift, PC/SM/PE/PS/Chol [1] [nm]","Tryptophan emission maximum wavelength, PC/Chol [2] [nm]","Tryptophan fluorescence Intensity, PC/Chol [2]","Blue Shift, PC/Chol [2] [nm]","Tryptophan emission maximum wavelength, PC/PG [3] [nm]","Blue Shift, PC/PG [3] [nm]",Tryptophan fluorescence emission maximum in HEPES [4] [nm]
CC[C@H](C)[C@H](NC(=O)[C@H](C)NC(=O)[C@H](CCCCN)NC(=O)[C@H](CC(C)C)NC(=O)[C@H](C)NC(=O)[C@@H](NC(=O)[C@H](Cc1c[nH]cn1)NC(=O)[C@H](CC(C)C)NC(=O)[C@@H](NC(=O)[C@@H](NC(=O)[C@H](CCCCN)NC(=O)[C@H](CCCCN)NC(=O)[C@H](C)NC(=O)[C@H](CO)NC(=O)[C@H](CCCCN)NC(=O)[C@H](Cc1ccccc1)NC(=O)[C@@H](NC(=O)[C@H](CCCCN)NC(=O)[C@H](CC(C)C)NC(=O)[C@H](Cc1ccccc1)NC(=O)[C@H](CO)NC(=O)[C@H](CCCCN)NC(=O)[C@H](Cc1c[nH]c2ccccc12)NC(=O)[C@H](CCCCN)NC(C)=O)[C@@H](C)O)[C@@H](C)O)C(C)C)[C@@H](C)O)C(=O)N[C@@H](CO)C(=O)N[C@@H](CO)C(N)=O [Peptide V13K],330,23,344,486,9,329,24,
CC[C@H](C)[C@H](NC(=O)[C@H](C)NC(=O)[C@H](CCCCN)NC(=O)[C@H](CC(C)C)NC(=O)[C@H](C)NC(=O)[C@@H](NC(=O)[C@H](Cc1c[nH]cn1)NC(=O)[C@H](CC(C)C)NC(=O)[C@H](NC(=O)[C@@H](NC(=O)[C@H](CCCCN)NC(=O)[C@H](CCCCN)NC(=O)[C@@H](C)NC(=O)[C@H](CO)NC(=O)[C@H](CCCCN)NC(=O)[C@H](Cc1ccccc1)NC(=O)[C@@H](NC(=O)[C@H](CCCCN)NC(=O)[C@H](CC(C)C)NC(=O)[C@H](Cc1ccccc1)NC(=O)[C@H](CO)NC(=O)[C@H](CCCCN)NC(=O)[C@H](Cc1c[nH]c2ccccc12)NC(=O)[C@H](CCCCN)NC(C)=O)[C@@H](C)O)[C@@H](C)O)C(C)C)[C@@H](C)O)C(=O)N[C@@H](CO)C(=O)N[C@@H](CO)C(N)=O [A12D/V16D],,,,,,336,14,350
CC[C@H](C)[C@H](NC(=O)[C@H](C)NC(=O)[C@H](CCCCN)NC(=O)[C@H](CC(C)C)NC(=O)[C@H](C)NC(=O)[C@@H](NC(=O)[C@H](Cc1c[nH]cn1)NC(=O)[C@H](CC(C)C)NC(=O)[C@H](NC(=O)[C@@H](NC(=O)[C@H](CCCCN)NC(=O)[C@H](CCCCN)NC(=O)[C@@H](C)NC(=O)[C@H](CO)NC(=O)[C@H](CCCCN)NC(=O)[C@@H](Cc1ccccc1)NC(=O)[C@@H](NC(=O)[C@H](CCCCN)NC(=O)[C@H](CC(C)C)NC(=O)[C@H](Cc1ccccc1)NC(=O)[C@H](CO)NC(=O)[C@H](CCCCN)NC(=O)[C@H](Cc1c[nH]c2ccccc12)NC(=O)[C@H](CCCCN)NC(C)=O)[C@@H](C)O)[C@@H](C)O)C(C)C)[C@@H](C)O)C(=O)N[C@@H](CO)C(=O)N[C@@H](CO)C(N)=O [F9D/A12D/V16D],337,9,346,261,0,335,11,
CC[C@H](C)[C@H](NC(=O)[C@H](C)NC(=O)[C@H](CCCCN)NC(=O)[C@H](CC(C)C)NC(=O)[C@H](C)NC(=O)[C@@H](NC(=O)[C@H](Cc1c[nH]cn1)NC(=O)[C@H](CC(C)C)NC(=O)[C@@H](NC(=O)[C@H](NC(=O)[C@@H](CCCCN)NC(=O)[C@H](CCCCN)NC(=O)[C@H](C)NC(=O)[C@@H](CO)NC(=O)[C@H](CCCCN)NC(=O)[C@H](Cc1ccccc1)NC(=O)[C@@H](NC(=O)[C@H](CCCCN)NC(=O)[C@H](CC(C)C)NC(=O)[C@H](Cc1ccccc1)NC(=O)[C@H](CO)NC(=O)[C@H](CCCCN)NC(=O)[C@H](Cc1c[nH]c2ccccc12)NC(=O)[C@H](CCCCN)NC(C)=O)[C@@H](C)O)[C@H](C)O)C(C)C)[C@@H](C)O)C(=O)N[C@@H](CO)C(=O)N[C@@H](CO)C(N)=O [S11D/K14D/T15D],335,10,,,,339,6,
CC[C@H](C)[C@H](NC(=O)[C@H](C)NC(=O)[C@H](CCCCN)NC(=O)[C@H](CC(C)C)NC(=O)[C@H](C)NC(=O)[C@@H](NC(=O)[C@H](Cc1c[nH]cn1)NC(=O)[C@H](CC(C)C)NC(=O)[C@@H](NC(=O)[C@@H](NC(=O)[C@@H](CCCCN)NC(=O)[C@H](CCCCN)NC(=O)[C@H](C)NC(=O)[C@@H](CO)NC(=O)[C@H](CCCCN)NC(=O)[C@H](Cc1ccccc1)NC(=O)[C@@H](NC(=O)[C@H](CCCCN)NC(=O)[C@H](CC(C)C)NC(=O)[C@H](Cc1ccccc1)NC(=O)[C@H](CO)NC(=O)[C@H](CCCCN)NC(=O)[C@H](Cc1c[nH]c2ccccc12)NC(=O)[C@H](CCCCN)NC(C)=O)[C@@H](C)O)[C@@H](C)O)C(C)C)[C@@H](C)O)C(=O)N[C@@H](CO)C(=O)N[C@@H](CO)C(N)=O [S11D/K14D],331,16,345,414,2,332,15,347
CC[C@H](C)[C@H](NC(=O)[C@H](C)NC(=O)[C@H](CCCCN)NC(=O)[C@H](CC(C)C)NC(=O)[C@H](C)NC(=O)[C@@H](NC(=O)[C@H](Cc1c[nH]cn1)NC(=O)[C@H](CC(C)C)NC(=O)[C@@H](NC(=O)[C@@H](NC(=O)[C@H](CCCCN)NC(=O)[C@H](CCCCN)NC(=O)[C@@H](C)NC(=O)[C@H](CO)NC(=O)[C@H](CCCCN)NC(=O)[C@H](Cc1ccccc1)NC(=O)[C@@H](NC(=O)[C@H](CCCCN)NC(=O)[C@H](CC(C)C)NC(=O)[C@H](Cc1ccccc1)NC(=O)[C@H](CO)NC(=O)[C@H](CCCCN)NC(=O)[C@H](Cc1c[nH]c2ccccc12)NC(=O)[C@H](CCCCN)NC(C)=O)[C@@H](C)O)[C@@H](C)O)C(C)C)[C@@H](C)O)C(=O)N[C@@H](CO)C(=O)N[C@@H](CO)C(N)=O [Peptide A12D],327,24,345,464,6,328,23,
CC[C@H](C)[C@H](NC(=O)[C@H](C)NC(=O)[C@H](CCCCN)NC(=O)[C@H](CC(C)C)NC(=O)[C@H](C)NC(=O)[C@@H](NC(=O)[C@H](Cc1c[nH]cn1)NC(=O)[C@H](CC(C)C)NC(=O)[C@@H](NC(=O)[C@@H](NC(=O)[C@@H](CCCCN)NC(=O)[C@H](CCCCN)NC(=O)[C@H](C)NC(=O)[C@H](CO)NC(=O)[C@H](CCCCN)NC(=O)[C@H](Cc1ccccc1)NC(=O)[C@@H](NC(=O)[C@H](CCCCN)NC(=O)[C@H](CC(C)C)NC(=O)[C@H](Cc1ccccc1)NC(=O)[C@H](CO)NC(=O)[C@H](CCCCN)NC(=O)[C@H](Cc1c[nH]c2ccccc12)NC(=O)[C@H](CCCCN)NC(C)=O)[C@@H](C)O)[C@@H](C)O)C(C)C)[C@@H](C)O)C(=O)N[C@@H](CO)C(=O)N[C@@H](CO)C(N)=O [Peptide K14D],329,20,,,,332,17,
CC[C@H](C)[C@H](NC(=O)[C@H](C)NC(=O)[C@H](CCCCN)NC(=O)[C@H](CC(C)C)NC(=O)[C@H](C)NC(=O)[C@@H](NC(=O)[C@H](Cc1c[nH]cn1)NC(=O)[C@H](CC(C)C)NC(=O)[C@@H](NC(=O)[C@@H](NC(=O)[C@H](CCCCN)NC(=O)[C@H](CCCCN)NC(=O)[C@@H](C)NC(=O)[C@H](CO)NC(=O)[C@H](CCCCN)NC(=O)[C@@H](Cc1ccccc1)NC(=O)[C@@H](NC(=O)[C@H](CCCCN)NC(=O)[C@H](CC(C)C)NC(=O)[C@H](Cc1ccccc1)NC(=O)[C@H](CO)NC(=O)[C@H](CCCCN)NC(=O)[C@H](Cc1c[nH]c2ccccc12)NC(=O)[C@H](CCCCN)NC(C)=O)[C@@H](C)O)[C@@H](C)O)C(C)C)[C@@H](C)O)C(=O)N[C@@H](CO)C(=O)N[C@@H](CO)C(N)=O [F9D/A12D],331,19,,,,335,15,350
CC[C@H](C)[C@H](NC(=O)[C@H](C)NC(=O)[C@H](CCCCN)NC(=O)[C@H](CC(C)C)NC(=O)[C@H](C)NC(=O)[C@@H](NC(=O)[C@H](Cc1c[nH]cn1)NC(=O)[C@H](CC(C)C)NC(=O)[C@@H](NC(=O)[C@H](NC(=O)[C@@H](CCCCN)NC(=O)[C@H](CCCCN)NC(=O)[C@H](C)NC(=O)[C@H](CO)NC(=O)[C@H](CCCCN)NC(=O)[C@H](Cc1ccccc1)NC(=O)[C@@H](NC(=O)[C@H](CCCCN)NC(=O)[C@H](CC(C)C)NC(=O)[C@H](Cc1ccccc1)NC(=O)[C@H](CO)NC(=O)[C@H](CCCCN)NC(=O)[C@H](Cc1c[nH]c2ccccc12)NC(=O)[C@H](CCCCN)NC(C)=O)[C@@H](C)O)[C@H](C)O)C(C)C)[C@@H](C)O)C(=O)N[C@@H](CO)C(=O)N[C@@H](CO)C(N)=O [K14D/T15D],,,,,,336,13,
